This note sets out measurements from patent publication US10833345B2, “Materials for high-performance aqueous organic redox flow batteries” (UNIVERSITY OF SOUTHERN CALIFORNIA, priority 2016, dated 2020).

A short description of data set [1]: Cyclic voltammetry and redox cell states of AMBSA. Type of data set: physicochemical.
A short description of data set [2]: Charge and discharge cycling of organic redox flow cells. The following applies: DHA negative electrolyte, AQDS positive electrolyte; 8 mA/cm^2. From the text:
In another embodiment, the effects of crossover can be mitigated by using a mixture of positive and negative electrolyte materials in equimolar quantities at both the electrodes. When such a mixture is charged only the positive electrolyte component will undergo oxidation reaction at the positive electrode and the negative electrolyte material will undergo reduction reactions at the negative electrode. Since the concentration of the redox active species is identical even if crossover occurs, the positive electrolyte material occurred to the negative electrolyte side this change in concentration will be balanced by back diffusion. Thus, there might be self-discharge but no permanent capacity loss or compositional change of the electrolyte. Any two redox couples that qualify as positive and negative electrolyte materials can be mixed in equimolar proportions and used as the electrolyte. We have shown the feasibility of rechargeability of this type of mixed materials using DMDHMS and AQDS (FIG. 8). Nearly 100% of the charge input was returned during discharge.
Based on the electrode potentials, the DHA can serve as the negative electrolyte and the AQDS can serve as the positive electrolyte. […] The cell was charged and discharged at 8 mA/cm^2. The value of cell voltage was consistent with that expected from the reduction potential of the redox couples. […]

For the compound `O=C1c2ccccc2C(=O)c2cc(Cc3cc(O)cc(S(=O)(=O)O)c3O)ccc21` [AMBSA, 2-anthraquinonemethyl (p-benzoquinol sulfonic acid)], the “Cell Voltage” value in data set [1] (Fully Charged, positive (BQS-AQS), negative (BQSH-AQSH)) was 0.8-1.0; in data set [1] (Fully Discharged, both electrodes (BQSH-AQS)), 0.0.
In the case of `O=C1c2cccc(O)c2C(=O)c2c(O)cccc21` [DHA, 1,8-dihydroxyanthraquinone], in data set [2], the charge voltages result was “about 0.4 V” and the discharge voltages entry is reported as “about 0.2 V”.
